Measured values published in PubChem BioAssay (EPA / NIEHS).
For some of these results: Most of the hits are listed elsewhere, so they are rarer here than in the full data. More than one record can exist for a structure, and the calls need not agree. The entries are a selection whose mix differs from that of the whole data set. Inconclusive results are not listed. The source made the active and inactive calls. How the source made its calls, unless noted: active means hit-call score of the fitted dose curve at least 0.9, where 1 is the maximum; inactive means score below 0.9.

Sequences of proteins named here, by UniProt entry; tags and fusion partners are left off. A change or cut given only in a name is not applied to a line headed by its entry.
UniProt P11473: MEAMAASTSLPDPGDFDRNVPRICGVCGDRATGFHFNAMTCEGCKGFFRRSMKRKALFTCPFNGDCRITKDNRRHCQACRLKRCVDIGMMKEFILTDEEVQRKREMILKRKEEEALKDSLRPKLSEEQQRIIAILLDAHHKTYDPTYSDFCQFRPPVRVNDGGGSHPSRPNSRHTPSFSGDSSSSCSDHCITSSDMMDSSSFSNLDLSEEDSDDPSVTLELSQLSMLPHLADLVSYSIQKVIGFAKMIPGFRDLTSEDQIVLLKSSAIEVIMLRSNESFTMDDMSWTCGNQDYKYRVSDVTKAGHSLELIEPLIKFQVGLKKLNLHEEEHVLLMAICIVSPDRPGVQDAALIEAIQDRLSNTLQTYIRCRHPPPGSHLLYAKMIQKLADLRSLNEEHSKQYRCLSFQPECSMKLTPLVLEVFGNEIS
UniProt P19793: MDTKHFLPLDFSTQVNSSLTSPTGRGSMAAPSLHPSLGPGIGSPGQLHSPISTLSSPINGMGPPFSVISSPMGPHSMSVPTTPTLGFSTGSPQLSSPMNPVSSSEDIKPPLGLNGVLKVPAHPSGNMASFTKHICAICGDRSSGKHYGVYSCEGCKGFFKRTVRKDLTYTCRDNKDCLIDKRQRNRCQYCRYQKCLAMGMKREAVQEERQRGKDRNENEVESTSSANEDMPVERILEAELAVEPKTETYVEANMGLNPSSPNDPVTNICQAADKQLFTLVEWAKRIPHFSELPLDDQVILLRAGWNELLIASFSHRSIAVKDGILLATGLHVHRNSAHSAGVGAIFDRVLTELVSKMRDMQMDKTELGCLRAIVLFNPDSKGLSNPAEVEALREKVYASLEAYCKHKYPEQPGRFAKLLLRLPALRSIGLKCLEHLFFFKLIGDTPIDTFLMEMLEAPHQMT
UniProt P04637, whole entry, looked up: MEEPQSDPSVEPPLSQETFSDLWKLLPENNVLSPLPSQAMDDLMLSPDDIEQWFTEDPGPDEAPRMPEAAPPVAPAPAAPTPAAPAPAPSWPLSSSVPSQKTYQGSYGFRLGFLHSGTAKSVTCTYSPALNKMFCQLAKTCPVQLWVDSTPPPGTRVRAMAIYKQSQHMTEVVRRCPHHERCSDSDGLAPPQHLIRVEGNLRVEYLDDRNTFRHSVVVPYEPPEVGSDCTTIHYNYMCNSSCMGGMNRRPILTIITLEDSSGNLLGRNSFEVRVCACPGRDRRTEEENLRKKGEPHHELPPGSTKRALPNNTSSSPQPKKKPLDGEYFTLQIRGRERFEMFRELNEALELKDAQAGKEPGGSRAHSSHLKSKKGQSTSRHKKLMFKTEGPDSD

Assays:
[1] = molecular target: human Vitamin D Receptor (VDR), VDR (gene 7421) (UniProt P11473); assay: ATG_VDR_TRANS: Attagene TRANS-FACTORIAL HepG2 Assay for human Vitamin D Receptor (VDR) (AID 2283022; active means hit-call score of the fitted dose curve at least 0.9, where 1 is the maximum)
Outline: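 Multiplexed TRANS reporter in HepG2; 24 h treatment; reporter mRNA by RT-PCR plus capillary electrophoresis; upregulation scored relative to DMSO.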

[2] = read-out: Interleukin-8 (IL8), CXCL8 (gene 3576); assay: BSK_3C_IL8: BioMAP Diversity Plus: 3C Assay for Interleukin-8 (IL8) Biomarker Activity (AID 2283020); details: actives raise or lower the signal; primary human endothelial cells (HUVEC)
Outline: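 ELISA read-out of IL-8 from human umbilical vein endothelium, measured 24 h after chemical dosing. Activity is expressed relative to DMSO negative control, with both increases and decreases fitted.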

[3] = read-out: Intercellular Adhesion Molecule 1 (ICAM1), ICAM1 (gene 3383); assay: BSK_KF3CT_ICAM1: BioMAP Diversity Plus: KF3CT Assay for Intercellular Adhesion Molecule 1 (ICAM1) Biomarker Activity (AID 2283067); details: actives raise or lower the signal; primary human keratinocytes with fibroblasts
Outline: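 Bidirectional curve fitting against a DMSO baseline was applied to ICAM-1 ELISA signal from primary human skin co-cultures harvested 24 h after treatment, with SRB staining of parallel wells for overt cytotoxicity.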

[4] = read-out: TIMP metallopeptidase inhibitor 2 (TIMP2), TIMP2 (gene 7077); assay: BSK_KF3CT_TIMP2: BioMAP Diversity Plus: KF3CT Assay for TIMP metallopeptidase inhibitor 2 (TIMP2) Biomarker Activity (AID 2283071); details: actives raise or lower the signal; primary human keratinocytes with fibroblasts
Outline: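 Cells: human keratinocytes co-cultured with foreskin fibroblasts. Treat with chemical, 24 h. Measure TIMP-2 by ELISA; fit curves bidirectionally vs DMSO baseline.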

[5] = tested on: guinea pig Leukotriene B4 Receptor (LTB4), gene 100379538; assay: NVS_GPCR_gLTB4: NovaScreen (NVS) G Protein-Coupled Receptor Assay for guinea pig Leukotriene B4 Receptor (LTB4) (AID 2283247; active means hit-call score of the fitted dose curve at least 0.9, where 1 is the maximum)
Outline: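 Radioligand displacement on guinea pig spleen membranes, filter-based scintillation counting 2 h after dosing. Primary duplicate single point at 25 uM; hits over threshold (e.g. 30% inhibition) run in concentration-response up to 50 uM, DMSO baseline.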

[6] = read-out: matrix metalloproteinase-3 (MMP3), MMP3 (gene 4314); assay: LTEA_HepaRG_MMP3: Life Technologies and Expression Analysis (LTEA) Assay for matrix metalloproteinase-3 (MMP3) using HepaRG (AID 2283519); details: actives raise or lower the signal; mRNA level, 48 h
Outline: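 HepaRG cells (~100,000/well) in serum-free induction medium were dosed in duplicate for 48 h with an 8-point half-log series from 100 uM, 0.5% DMSO. MMP3 mRNA was quantified by Fluidigm TaqMan qRT-PCR, normalized to three housekeeping genes.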

[7] = Tanguay_ZF_120hpf_SWIM_legacy: (Legacy) Oregon State University Tanguay Lab 120 Hour Post-fertilization zebrafish Assay for Swim Bladder Malformation (AID 2283654; active means hit-call score of the fitted dose curve at least 0.9, where 1 is the maximum;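 further: swim bladder malformation in each larva scored yes or no under brightfield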)
Outline: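 Dechorionated wild-type Tropical 5D zebrafish embryos, one per well from 6 hpf, were statically exposed at 28C until 120 hpf in 0.64% DMSO. Swim bladder malformation scored as present/absent by brightfield microscopy; not scored in dead larvae.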

[8] = CCTE_Shafer_MEA_dev_bursting_electrodes_number: CCTE's Neural Network Formation Assay for Number of Bursting Electrodes, Shafer Lab (AID 2284043; active means hit-call score of the fitted dose curve at least 0.9, where 1 is the maximum;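 further: potency is for loss of bursting electrodes relative to DMSO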)
Outline: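 Primary rat cortical neurons plated on 16-electrode MEA wells, exposed from day 0 with compound renewed at DIV 5 and 9. Electrodes bursting ≥1 burst per 2 min counted on days 5, 7, 9 and 12; trapezoidal AUC across days, fitted for loss versus DMSO.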

[9] = CCTE_Shafer_MEA_dev_correlation_coefficient_mean: CCTE's Neural Network Formation Assay for Mean Correlation Coefficient, Shafer Lab (AID 2284093)
Outline: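 Extracellular firing from rat cortical networks on 48-well MEAs, DMSO-referenced, negative fitting direction. Compound present from plating to DIV12; mean pairwise correlation per well integrated over DIV5–12 recordings by trapezoidal AUC.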

[10] = BSK_BT_PBMCCytotoxicity: PBMC Cytotoxicity Assessment in the BioMAP Diversity Plus: BT Assay (AID 2284225); details: primary human B cells with PBMC;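 further: PBMC viability measured by Alamar Blue dye reduction fluorescence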
Outline: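 PBMC (75,000/well) pretreated with compound 1 h, then activated with SEB and TSST-1 (20 ng/mL each final), incubated 90 h; Alamar Blue added 6 h, fluorescence read at 546/580 nm. Fitted relative to DMSO.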

[11] = read-out: Vascular cell adhesion molecule 1 (VCAM1), VCAM1 (gene 7412); assay: BSK_BF4T_VCAM1: BioMAP Diversity Plus: BF4T Assay for Vascular cell adhesion molecule 1 (VCAM1) Biomarker Activity (AID 2284249); details: primary human bronchial epithelial cells with fibroblasts
Outline: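 Human bronchial epithelial cell and dermal fibroblast co-culture exposed 24 h. VCAM-1 measured by ELISA; parallel SRB total-protein staining for cytotoxicity. Fitted in positive direction relative to DMSO.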

[12] = read-out: Interferon-inducible T-cell alpha chemoattractant (ITAC), CXCL11 (gene 6373); assay: BSK_hDFCGF_ITAC: BioMAP Diversity Plus: hDFCGF Assay for Interferon-inducible T-cell alpha chemoattractant (ITAC) Biomarker Activity (AID 2284251); details: primary human foreskin fibroblasts
Outline: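 Primary human foreskin fibroblasts (hDFCGF system) treated for 24 h; I-TAC quantified by ELISA. Gain-direction fitting versus DMSO; parallel SRB staining of total protein flagged overt cytotoxicity.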

[13] = read-out: Macrophage Inflammatory Protein-1 Alpha (MIP1a), CCL3 (gene 6348); assay: BSK_IMphg_MIP1a: BioMAP Diversity Plus: IMphg Assay for Macrophage Inflammatory Protein-1 Alpha (MIP1a) Biomarker Activity (AID 2284255); details: primary human endothelial cells with macrophages
Outline: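 Co-culture of human venular endothelial cells and macrophages exposed to compounds for 24 h; MIP-1a measured by ELISA relative to DMSO. Cytotoxicity assessed in parallel cultures by sulforhodamine B total-protein staining at 560 nm.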

[14] = CCTE_Padilla_ZF_Score.Swim_bladder: CCTE's 144 Hour Post-fertilization zebrafish Assay Score for Swim Bladder Malformation, Padilla Lab (AID 2284408)
Outline: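 Wild-type zebrafish embryos, one per well in 10% Hanks', dosed at 6–8 hpf, sealed, reared at 26C and rinsed at 5 dpf. Blinded assessors scored uninflated swim bladder by stereomicroscopy at 6 dpf, relative to DMSO.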

[15] = CCTE_Padilla_ZF_Score.General: CCTE's 144 Hour Post-fertilization zebrafish Assay Score for General Malformation, Padilla Lab (AID 2284411)
Outline: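 Wild-type zebrafish embryos were plated singly at 6-8 hpf in 10% Hanks' and exposed in sealed wells at 26C until rinsed on 5 dpf. At 6 dpf two blinded assessors scored mortality, hatching and malformations by stereomicroscopy; gain-of-signal versus DMSO.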

[16] = read-out: Monocyte Chemoattractant Protein-1 (MCP1), CCL2 (gene 6347); assay: BSK_4H_MCP1: BioMAP Diversity Plus: 4H Assay for Monocyte Chemoattractant Protein-1 (MCP1) Biomarker Activity (AID 2283018); details: actives raise or lower the signal; primary human endothelial cells (HUVEC)
Outline: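 ELISA read-out of MCP-1 from human vascular endothelial primary cells taken at 24 hours after compound exposure. Activity was fitted in both directions relative to DMSO, which served as negative control.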

[17] = BSK_CASM3C_Proliferation: Cell Proliferation Assessment in the BioMAP Diversity Plus: CASM3C Assay (AID 2283047); details: primary human coronary artery smooth muscle cells;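 further: sub-confluent cells exposed 48 h before staining; fitted both ways against DMSO so gain or loss of cell number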
[18] = molecular target: Retinoic acid receptor RXR-alpha (Homo sapiens) (UniProt P19793); assay: OT_NURR1_NURR1RXRa_1440: Odyssey Thera (OT) 24-hour HEK293T Protein Complementation Assay for Nurr1/retinoid X receptor (RXR) (AID 2283386; active means hit-call score of the fitted dose curve at least 0.9, where 1 is the maximum)
Outline: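 Interaction of Nurr1 with RXRα brings fused reporter fragments together in human HEK293T cells, restoring a functional reporter. Fluorescence intensity is measured 24 h after chemical treatment, and values are analysed in the positive direction against DMSO.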

CYP2C8 (gene 1558) = assay: LTEA_HepaRG_CYP2C8: Life Technologies and Expression Analysis (LTEA) Assay for CYP2C8 using HepaRG (AID 2283483); details: actives raise or lower the signal; mRNA level, 48 h
Outline: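 Differentiated HepaRG cells in serum-free induction medium exposed 48 h in duplicate to 8 half-log concentrations from 100 uM in 0.5% DMSO. CYP2C8 mRNA by qRT-PCR normalized to ACTB, GAPDH, POLR2A; bidirectional fit versus DMSO.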

[19] = TOX21_p53_BLA_p3_viability: Viability Assessment in the Tox21 HCT-116 p53 Agonism Beta-lactamase Assay, Phase 3 (AID 2283593; active means hit-call score of the fitted dose curve at least 0.9, where 1 is the maximum;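 further: cells exposed to compound for 16 h before reading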)
Outline: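 HCT116 cells, 4000/well, dosed 5 h after plating by pin transfer (217-fold dilution from DMSO stock) and incubated 16 h at 37C, 5% CO2. Viability read as ATP luminescence with CellTiter-Glo after 30 min at room temperature.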

[20] = CCTE_Mundy_HCI_hN2_NOG_NeuriteCount: CCTE's Neurite Outgrowth Assay in human hN2 cells for Neurite Count, Mundy Lab (AID 2284219; active means hit-call score of the fitted dose curve at least 0.9, where 1 is the maximum)
Outline: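 In this morphology assay, hNP1-derived neurons received test chemical 2 h post-plating and were fixed two days later in warm paraformaldehyde/sucrose containing Hoechst 33342. Neurites, labelled by rabbit anti-βIII-tubulin (1:800) and Alexa Fluor-488 (1:500), were counted automatically.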

[21] = molecular target: Retinoic acid receptor RXR-alpha (Homo sapiens) (UniProt P19793); assay: ATG_RXRa_TRANS: Attagene TRANS-FACTORIAL HepG2 Assay for human Retinoid X Receptor alpha (RXRa) (AID 2283012; active means hit-call score of the fitted dose curve at least 0.9, where 1 is the maximum)
Outline: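 Transient transfection of human HepG2 with multiple GAL4-UAS reporter constructs; 24 h compound exposure; total RNA isolated, reverse-transcribed, PCR-amplified, 6-FAM labelled, HpaI-cut, resolved by capillary electrophoresis. Positive-direction fit versus DMSO.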

[22] = ATG_XTT_Cytotoxicity: Cytotoxicity Assessment in the Attagene TRANS-FACTORIAL HepG2 Assay (AID 2283584; active means hit-call score of the fitted dose curve at least 0.9, where 1 is the maximum)
Outline: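 24 h chemical exposure of reporter-transfected HepG2; XTT signal loss vs DMSO indicates cytotoxicity.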

[23] = molecular target: Cellular tumor antigen p53 (Homo sapiens) (UniProt P04637); assay: TOX21_p53_BLA_p3_ratio: Tox21 HCT-116 p53 Agonism Beta-lactamase Assay, Ratio, Phase 3 (AID 2283596; active means hit-call score of the fitted dose curve at least 0.9, where 1 is the maximum)
Outline: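 HCT116 p53-bla cells (4000/well) given compound in DMSO (217-fold dilution) after 5 h, incubated 16 h at 37C. CCF4-AM substrate 2 h at room temperature; 460/530 nm emission ratio, gain fitted against DMSO.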

For `Nc1ccc(-c2ccccc2)cc1`, which outcome [1] is on record?
The outcome was “inactive”.

For `O=C(O)C(F)(F)C(F)(F)C(F)(F)C(F)(F)C(F)(F)C(F)(F)C(F)(F)F`, which outcome [2] is on record?
The outcome was “inactive”.

What about the AC50 [3] of the same molecule?
The AC50 was active: 13.6 µM.

What about the outcome [4] of the same molecule?
Its outcome is “inactive”.

And the AC50 [5]?
Its AC50 is active: 12.1 µM.

What about the outcome [6] of the same molecule?
The outcome was “inactive”.

What about the outcome [7] of the same molecule?
The outcome was “inactive”.

What about the AC50 [8] of the same molecule?
Its AC50 is active: 26.3 µM.

What about the outcome [9] of the same molecule?
The outcome was “inactive”.

What about the outcome [10] of the same molecule?
The outcome was “inactive”.

What about the outcome [11] of the same molecule?
The outcome was “inactive”.

What about the outcome [12] of the same molecule?
The outcome was “inactive”.

What about the outcome [13] of the same molecule?
The outcome was “inactive”.

And the AC50 [14]?
The AC50 was active: 1.72 µM.

What about the AC50 [15] of the same molecule?
The AC50 was active: 1.72 µM.

For `ClC1=C(Cl)[C@]2(Cl)[C@@H]3[C@@H]4C[C@@H]([C@H]5O[C@@H]45)[C@@H]3[C@@]1(Cl)C2(Cl)Cl`, which AC50 [16] is on record?
The AC50 was active: 14.3 µM.

And the AC50 [17]?
The AC50 was active: 14.4 µM.

What about the outcome [18] of the same molecule?
Its outcome is “inactive”.

What about the outcome (CYP2C8 (gene 1558)) of the same molecule?
The outcome was “inactive”.

What about the outcome [19] of the same molecule?
Its outcome is “inactive”.

What about the AC50 [20] of the same molecule?
The AC50 was active: 12.7 µM.

What does the source list for `O=C(OC1CCCCC1)c1ccccc1C(=O)OC1CCCCC1`?
outcome [21]: inactive; AC50 [18]: active: 70.5 µM; outcome [22]: inactive; outcome [23]: inactive
